# Test results published in PubChem BioAssay AID342 (DTP/NCI, 2004).
# The list is a part of this screen's results and no random one: it gathers tests that were run many times, whatever their T/C, doses with no T/C, and many T/C values between a quarter and a half above the control. Further doses and runs are listed elsewhere. T/C: endpoint of the treated group in % of that of the vehicle group. Schedules are NCI's codes, taken here to give the interval after Q, in days (D) or hours (H), and the number of doses after X. Some doses were run more than once; the results are listed from low to high. Some schedules carry Z or #; the key to these is not given. Some T/C values carry the count of animals alive at the toxicity check (mostly the fifth day); without a count, all were alive then. Some doses have a count of surviving animals in place of a T/C: the source files T/C as zero there, which appears to mark a toxic dose or a test without result, not a measured value. Survivors were counted at the toxicity check, usually on the fifth day, unless a day is given; later deaths do not show. Square brackets hold non-standard residues; d marks the D form. Peptide text beside a SMILES is read from it. ξ: configuration not given here. Ac5c = NC1(C(=O)O)CCCC1; ξS = NC(CO)C(=O)O
# Test system: Swiss mice, Sarcoma 180 sc, mean tumor weight T/C
# Assay: NCI In Vivo Anticancer Drug Screen. Data for tumor model Sarcoma 180 (subcutaneous) in Swiss mice
# Conditions: T/C endpoint: mean tumor weight, higher T/C = larger tumour; for T/C: evaluated on day 8
# Method in brief: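 Tumor-bearing mice, transplantable tumor; readout survival or tumor size; result = T/C, treated vs vehicle control.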
# [1] = dose: 166.5 mg/kg/injection, schedule: Q#A X014 (ip), vehicle: methylcellulose (MC)
# [2] = dose: 250.0 mg/kg/injection, schedule: Q#A X014 (ip), vehicle: methylcellulose (MC)
# [3] = dose: 375.0 mg/kg/injection, schedule: Q#A X014 (ip), vehicle: methylcellulose (MC)
# [4] = dose: 500.0 mg/kg/injection, schedule: Q01DX007 (ip), vehicle: saline
# [5] = dose: 25.0 mg/kg/injection, schedule: Q01DX007 (ip), vehicle: carboxymethylcellulose (CMC)
# [6] = dose: 50.0 mg/kg/injection, schedule: Q01DX007 (ip), vehicle: carboxymethylcellulose (CMC)
# [7] = dose: 166.0 mg/kg/injection, schedule: Q01DX007 (ip), vehicle: other
# [8] = dose: 250.0 mg/kg/injection, schedule: Q01DX007 (ip), vehicle: other
# [9] = dose: 375.0 mg/kg/injection, schedule: Q01DX007 (ip), vehicle: other
# [10] = dose: 100.0 mg/kg/injection, schedule: Q01DX007 (ip), vehicle: carboxymethylcellulose (CMC)
# [11] = dose: 110.0 mg/kg/injection, schedule: Q01DX007 (ip), vehicle: other
# [12] = dose: 375.0 mg/kg/injection, schedule: Q01DX007 (ip), vehicle: carboxymethylcellulose (CMC)
compound,measurement,setting,value
O=C(CCCl)N1CCN(C(=O)CCCl)CC1,T/C,[1],"37, 63 [4 of 6 alive], 87 % of control"
same,survivor count,[1],3 of 6
same,T/C,[2],"29, 45, 66 [5 of 6 alive], 117 % of control"
same,survivor count,[2],2 of 6
same,T/C,[3],"8, 12 [5 of 6 alive], 54 % of control [5 of 6 alive]"
same,survivor count,[3],2 of 6 and 3 of 6
CN(C)/N=N/c1nc[nH]c1C(N)=O,survivor count,[4],1 of 6
same,survivor count,"dose: 1280.0 mg/kg/injection, schedule: Q01DX007 (ip), vehicle: carboxymethylcellulose (CMC)",3 of 6
NC1(C(=O)O)CCCC1,survivor count,"dose: 112.5 mg/kg/injection, schedule: Q#A X014 (ip), vehicle: saline",2 of 6
same,survivor count,"dose: 250.0 mg/kg/injection, schedule: Q01DX007 (ip), vehicle: saline",3 of 6
same,survivor count,[4],2 of 6
CCCCCC/C=C/[N+]([O-])=NC(COC)C(C)O (configuration not stated),T/C,"dose: 12.0 mg/kg/injection, schedule: Q01DX007 (ip), vehicle: carboxymethylcellulose (CMC)",131 % of control
same,survivor count,[5],0 of 6
same,survivor count,[6],0 of 6
CC(=O)OCC(=O)[C@@]1(O)CC[C@H]2[C@@H]3C[C@H](C)C4=CC(=O)CC[C@]4(C)[C@H]3[C@@H](O)C[C@@]21C,survivor count,"dose: 100.0 mg/kg/injection, schedule: Q#A X014 (sc), vehicle: steroid suspending solution",3 of 6
N#Cc1ccc(S(N)(=O)=O)cc1,survivor count,"dose: 111.0 mg/kg/injection, schedule: Q01DX007 (ip), vehicle: other",2 of 6
same,survivor count,[7],0 of 6
same,survivor count,[8],0 of 6
same,survivor count,[9],0 of 6
CC1C[C@@H]2[C@H]([C@@H](O)C[C@@]3(C)[C@H]2CC[C@]3(O)C(=O)CF)[C@@]2(C)CCC(=O)C=C12 (some centres not stated),survivor count,"dose: 62.0 mg/kg/injection, schedule: Q#A X014 (sc), vehicle: steroid suspending solution",3 of 6
same,survivor count,"dose: 210.75 mg/kg/injection, schedule: Q#A X014 (sc), vehicle: steroid suspending solution",1 of 5
CC(=O)Nc1c(Cl)c(Cl)c2c(c1Cl)Cc1cc(Cl)c(Cl)cc1-2,survivor count,[5],2 of 6
same,survivor count,"dose: 48.0 mg/kg/injection, schedule: Q01DX007 (ip), vehicle: other",0 of 6
same,survivor count,[6],1 of 6
same,survivor count,"dose: 74.0 mg/kg/injection, schedule: Q01DX007 (ip), vehicle: other",0 of 6 and 1 of 6
same,survivor count,[10],0 of 6
same,survivor count,"dose: 110.0 mg/kg/injection, schedule: Q01DX007 (ip), vehicle: carboxymethylcellulose (CMC)",1 of 6
same,T/C,[11],29 [5 of 6 alive] and 31 % of control
same,survivor count,[11],1 of 6 and 2 of 6
same,survivor count,"dose: 166.0 mg/kg/injection, schedule: Q01DX007 (ip), vehicle: carboxymethylcellulose (CMC)",2 of 6
same,T/C,[7],28 % of control
same,survivor count,[7],0 of 6 and 2 of 6
same,survivor count,"dose: 250.0 mg/kg/injection, schedule: Q01DX007 (ip), vehicle: carboxymethylcellulose (CMC)",0 of 6
same,survivor count,[8],1 of 6
same,survivor count,[12],0 of 6
same,survivor count,[9],0 of 6
COS(C)(=O)=O,survivor count,[10],3 of 6
same,survivor count,"dose: 200.0 mg/kg/injection, schedule: Q01DX007 (ip), vehicle: carboxymethylcellulose (CMC)",0 of 6
O=CN(O)CC(=O)O,T/C,"dose: 125.0 mg/kg/injection, schedule: Q01DX007 (ip), vehicle: carboxymethylcellulose (CMC)",128 % of control [5 of 6 alive]
CCCN(C)/N=N/c1nc[nH]c1C(N)=O,survivor count,"dose: 91.0 mg/kg/injection, schedule: Q01DX007 (ip), vehicle: carboxymethylcellulose (CMC)",3 of 6
O=c1[nH]cc(F)c(=O)[nH]1,T/C,"dose: 19.0 mg/kg/injection, schedule: Q01DX007 (ip), vehicle: carboxymethylcellulose (CMC)","66, 67, 70, 82 % of control"
same,T/C,"dose: 38.0 mg/kg/injection, schedule: Q01DX007 (ip), vehicle: carboxymethylcellulose (CMC)","1 [8 of 10 alive], 16 [9 of 10 alive], 29, 64 % of control"
NC(CO)C(=O)NC1(C(=O)O)CCCC1 (configuration not stated) (H-[ξS]-[Ac5c]-OH),survivor count,[12],2 of 6
COc1ccc(C[C@H]2NC[C@H](O)[C@H]2OC(C)=O)cc1,survivor count,"dose: 200.0 mg/kg/injection, schedule: Q01DX007 (ip), vehicle: saline",2 of 6
NCCCC(NC(=O)CCCCCCCCN=C(N)N)C(O)CCCCCCCCN=C(N)N (configuration not stated),survivor count,"dose: 20.0 mg/kg/injection, schedule: Q01DX007 (ip), vehicle: carboxymethylcellulose (CMC)",3 of 6
CC(=O)OCC(=O)C1(O)C(C)CC2C3C=C(C)C4=Cc5c(cnn5-c5ccccc5)CC4(C)C3C(O)CC21C (configuration not stated),T/C,"dose: 0.11 mg/kg/injection, schedule: Q01DX007 (sc), vehicle: steroid suspending solution",134 % of control
same,T/C,"dose: 0.25 mg/kg/injection, schedule: Q01DX007 (sc), vehicle: steroid suspending solution",131 % of control
same,T/C,"dose: 0.37 mg/kg/injection, schedule: Q01DX007 (sc), vehicle: steroid suspending solution",139 % of control
same,survivor count,"dose: 2.0 mg/kg/injection, schedule: Q01DX007 (sc), vehicle: steroid suspending solution",3 of 6
same,survivor count,"dose: 16.0 mg/kg/injection, schedule: Q01DX007 (sc), vehicle: steroid suspending solution",3 of 6
same,survivor count,"dose: 32.0 mg/kg/injection, schedule: Q01DX007 (sc), vehicle: steroid suspending solution",2 of 6
CC(=O)Nc1cc2c(cc1[N+](=O)[O-])-c1ccccc1C2O (configuration not stated),survivor count,"dose: 222.0 mg/kg/injection, schedule: Q01DX007 (ip), vehicle: saline",1 of 6
same,survivor count,"dose: 750.0 mg/kg/injection, schedule: Q01DX007 (ip), vehicle: other",0 of 6
CC(NC(=O)C1(N)CCCC1)C(=O)O (configuration not stated),survivor count,[6],2 of 6
same,survivor count,"dose: 150.0 mg/kg/injection, schedule: Q01DX007 (ip), vehicle: carboxymethylcellulose (CMC)",3 of 6
same,survivor count,"dose: 500.0 mg/kg/injection, schedule: Q01DX007 (ip), vehicle: steroid suspending solution",2 of 6
same,survivor count,"dose: 750.0 mg/kg/injection, schedule: Q01DX007 (ip), vehicle: steroid suspending solution",1 of 6
Cc1cc(N(CCCl)CCCl)ccc1N=Nc1ccccc1C(=O)O,survivor count,"dose: 18.0 mg/kg/injection, schedule: Q01DX007 (ip), vehicle: carboxymethylcellulose (CMC)",4 of 7
same,survivor count,[5],2 of 6
same,survivor count,"dose: 27.0 mg/kg/injection, schedule: Q01DX007 (ip), vehicle: carboxymethylcellulose (CMC)",1 of 7
same,survivor count,"dose: 40.0 mg/kg/injection, schedule: Q01DX007 (ip), vehicle: carboxymethylcellulose (CMC)",1 of 7
O=C1Cc2ccccc2C(=O)N1,survivor count,"dose: 60.0 mg/kg/injection, schedule: Q#A X014 (ip), vehicle: carboxymethylcellulose (CMC)",2 of 6
same,survivor count,"dose: 120.0 mg/kg/injection, schedule: Q#A X014 (ip), vehicle: carboxymethylcellulose (CMC)",2 of 6
CC(CN)CCC(C)(O)C(N)=O (configuration not stated),survivor count,"dose: 281.25 mg/kg/injection, schedule: Q#A X014 (ip), vehicle: methylcellulose (MC)",2 of 6
CC(CNC(=O)CCBr)NC(=O)CCBr (configuration not stated),survivor count,[12],1 of 6
CC(C)(C#N)C#N,survivor count,"dose: 375.0 mg/kg/injection, schedule: Q01DX007 (ip), vehicle: saline",3 of 6
same,survivor count,"dose: 750.0 mg/kg/injection, schedule: Q01DX007 (ip), vehicle: saline",2 of 6
